Assay results: article PMC12205368

Chains of the proteins cited; added tags and fusions are not shown. Residues count along the entry.
UniProt Q04637, 748-993: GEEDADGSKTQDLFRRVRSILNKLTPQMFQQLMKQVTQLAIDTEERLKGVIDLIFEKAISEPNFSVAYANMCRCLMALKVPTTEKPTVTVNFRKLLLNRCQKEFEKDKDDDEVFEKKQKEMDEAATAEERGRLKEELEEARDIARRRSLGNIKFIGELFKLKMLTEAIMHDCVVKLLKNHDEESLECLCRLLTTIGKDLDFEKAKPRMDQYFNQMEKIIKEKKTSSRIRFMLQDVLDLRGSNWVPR

Biological target: eIF4G1-HEAT1 (UniProt Q04637)
Test: EMSA
Conditions: 5 mM Mg2+, 1 mM ATP, 10 mM sodium phosphate pH 7.5, 300 mM NaCl, 2 mM beta-mercaptoethanol, 5 mM MgCl2, 5% glycerol, room temperature, 15 min, 20% acrylamide gel, 0.5x TBE, recombinant protein

| Sequence | Kd (RNA version of d 5YEY, 5' phosphate not stated for the RNA, letters put together from the description) [nM] | Kd (5' phosphate, folded or branched DNA) [nM] |
| --- | --- | --- |
| GGGUUAGGGUUAGGGUUUGGG [r 5YEY] | 1310 | – |
| GGTGGTGGTGGTTGTGGTGGTGGTGG [d AGRO100 (AS1411)] | – | 725 |

Construct, isoform or probe ends are uncertain for at least one entry.
